Patent publication US5733881A (Astra AB, priority 1994, dated 1998)
Non-standard residues stand in square brackets, D forms with d. Tic = O=C(O)[C@@H]1Cc2ccccc2CN1; Cha = N[C@@H](CC1CCCCC1)C(=O)O

Test: general procedure: Boc solid-phase peptide synthesis; Boc-Phe-O-resin; DCC/HOBt, DIC/HOBt or BOP
Conditions: whole synthesis, scale 1 g resin, 0.61 mmol/g

## H-Y[Tic][Cha]F-OH
  isolated mass: 45 mg
